One test has as its target human CXCR2 (human) (UniProt P25025). Description: label-free dynamic mass redistribution (DMR); HEK293-CXCR2 transfectants on fibronectin-coated label-free plates, against non-transfected cells; peptides at 500 μM (MIF(47–56) also at 100, 200, 400 μM); 20 mM HEPES, 1 % DMSO in HBSS pH 7.4; room temperature; shift of resonant wavelength Δpm as a measure of binding; only the binder purified.

Protein sequences, listed by entry. Tags and fused reporters are not part of them.
UniProt P25025: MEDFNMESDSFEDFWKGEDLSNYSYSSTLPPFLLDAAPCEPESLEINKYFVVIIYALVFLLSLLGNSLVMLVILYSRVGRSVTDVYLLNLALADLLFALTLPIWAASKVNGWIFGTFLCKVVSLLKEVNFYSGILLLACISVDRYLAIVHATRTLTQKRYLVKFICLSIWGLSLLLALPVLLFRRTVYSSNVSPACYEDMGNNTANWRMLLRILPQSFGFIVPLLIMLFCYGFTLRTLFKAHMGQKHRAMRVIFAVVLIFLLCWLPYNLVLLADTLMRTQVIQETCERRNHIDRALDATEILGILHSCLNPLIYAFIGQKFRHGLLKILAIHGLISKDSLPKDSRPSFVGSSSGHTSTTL

Test [1] deals with T1, recombinant human macrophage migration inhibitory factor (MIF) (human) (UniProt P14174).
T1 sequence (chain, Alexa Fluor-488 label (Alexa-MIF, in the fluorescence titration)): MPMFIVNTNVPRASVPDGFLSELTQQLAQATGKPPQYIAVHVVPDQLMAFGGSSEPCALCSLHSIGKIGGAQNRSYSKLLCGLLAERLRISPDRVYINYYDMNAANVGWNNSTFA
Description: condition: up to 1000-fold molar excess over 10 nM Alexa-MIF; other fluorescence titration; Alexa-MIF 10 nM mixed with MIF(47–56) at ratios 1:0.1 to 1:1000; 10 mM sodium phosphate pH 7.4, 1 % HFIP; room temperature; excitation 492 nm, emission at 519 nm; both purified.

The source of these data is publication PMC8049018, “A MIF‐Derived Cyclopeptide that Inhibits MIF Binding and Atherogenic Signaling via the Chemokine Receptor CXCR2” (Chembiochem, 2020).

Results are given in words; binding and its absence hold for the method and conditions named.

In the case of SFESGPAGML (N-terminally acetylated; C-terminally amidated) [scrambled control peptide of MIF(47–56)], the binding entry in the test with human CXCR2 (human) is recorded as “no binding (tested: 500 μM)”. In the case of LMAFGGSSEP (N-terminally acetylated; C-terminally amidated) [MIF(47–56)], the binding entry in test [1] was “no binding”.
